For at least one entry, the source does not settle the construct or the ends of the probe. At least one verdict was read from the data and is not stated in words by the source.
Columns and labels:
[1] = tested on: 30S ribosomal subunit + initiation factor IF1 + initiation factor IF3 + initiation factor IF2; experiment: cryo-EM; details: GE81112A, with fMet-tRNAfMet, IF2-containing class; cryo-EM of 30S with IF1, IF2, IF3, fMet-tRNAfMet, MF-mRNA and antibiotic; 30S reactivated at 21 mM MgCl2, 37 C, 30 min; complex buffer; native protein
[2] = tested on: 30S ribosomal subunit + initiation factor IF1 + initiation factor IF3; experiment: cryo-EM; details: cryo-EM of 30S with IF1, IF2, IF3, fMet-tRNAfMet, MF-mRNA and antibiotic, 30S reactivated at 21 mM MgCl2, 37 C, 30 min, complex buffer, native protein

Measured: binding result

AAACAAUUGGAGGAAUAAGGUAUGUUUGGCGGAAAACGAG [MF-mRNA (Met-Phe-mRNA)]
binds: [1] | [2]; GE81112A, class without tRNA | [2]; GE81112A, with fMet-tRNAfMet, start codon recognised | [2]; edeine, class without tRNA, SD-antiSD helix density only, no mRNA density in A, P, E sites | [2]; kasugamycin, class without tRNA

Source: paper PMC11903750
